Measurements from patent US9206224 (dated 2015).

Assay: general procedure: Fmoc solid-phase peptide synthesis
Conditions: whole synthesis, scale 0.25 mmol

## N3-ESOC-AAAAAKDYIRN-SEAoff
  isolated mass: 23 mg
  isolated yield: Yld=23%

## N3-Esoc-GILKEPVQGA-SEAoff
  isolated mass: 15 mg
  isolated yield: Yld=14%
